According to patent publication US20140328797A1:

How the values were obtained:
[1] = molecular target: HRV-C untagged C15 virus strain (human rhinovirus); assay: summary of Example 3
[2] = molecular target: HRV-48 (human rhinovirus); assay: imaging of infected, fixed, permeabilized HeLa cells; Alexafluor-647 anti-human Fc
[3] = molecular target: HRV-26 (human rhinovirus); assay: as above
[4] = molecular target: HRV-64 (human rhinovirus); assay: as above
[5] = molecular target: HRV-36 (human rhinovirus); assay: imaging of infected, fixed, permeabilized HeLa cells; mAb at 2 µg/ml
[6] = molecular target: HRV-34 (human rhinovirus); assay: as above
[7] = molecular target: HRV-54 (human rhinovirus); assay: as above
[8] = molecular target: HRV-51 (human rhinovirus); assay: as above
[9] = molecular target: HRV-21 (human rhinovirus); assay: as above
[10] = molecular target: HRV-75 (human rhinovirus); assay: as above
[11] = molecular target: HRV-88 (human rhinovirus); assay: as above
[12] = molecular target: HRV-86 (human rhinovirus); assay: as above
[13] = molecular target: HRV-28 (human rhinovirus); assay: as above
[14] = molecular target: HRV-93 (human rhinovirus); assay: as above
[15] = molecular target: HRV-61 (human rhinovirus); assay: as above
[16] = molecular target: HRV-29 (human rhinovirus); assay: as above
[17] = molecular target: HRV-23 (human rhinovirus); assay: as above
[18] = molecular target: HRV-38 (human rhinovirus); assay: as above
[19] = molecular target: HRV-13 (human rhinovirus); assay: as above
[20] = molecular target: HRV-67 (human rhinovirus); assay: as above
[21] = molecular target: HRV-24 (human rhinovirus); assay: as above
[22] = molecular target: HRV-49 (human rhinovirus); assay: as above
[23] = molecular target: HRV-84 (human rhinovirus); assay: as above
[24] = molecular target: HRV-52 (human rhinovirus); assay: as above
[25] = molecular target: HRV-63 (human rhinovirus); assay: as above
[26] = molecular target: HRV-45 (human rhinovirus); assay: as above
[27] = molecular target: HRV-70 (human rhinovirus); assay: as above
[28] = molecular target: HRV-08 (human rhinovirus); assay: as above
[29] = molecular target: HRV-12 (human rhinovirus); assay: as above
[30] = molecular target: HRV-83 (human rhinovirus); assay: as above
[31] = molecular target: HRV-62 (human rhinovirus); assay: as above
[32] = molecular target: HRV-74 (human rhinovirus); assay: as above
[33] = molecular target: HRV-40 (human rhinovirus); assay: as above
[34] = molecular target: HRV-37 (human rhinovirus); assay: as above
[35] = molecular target: HRV-31 (human rhinovirus); assay: as above
[36] = molecular target: HRV-76 (human rhinovirus); assay: as above
[37] = molecular target: HRV-C untagged C15 virus strain (human rhinovirus); assay: immunofluorescence microscopy, fixed and permeabilized transfected HeLa cells
[38] = molecular target: HRV-C untagged C15 virus strain (human rhinovirus); assay: immunofluorescence on HeLa cells transfected with HRV-C genomic RNA

Measured: binding

B1: TCN-711 (6893_E11) (antibody, human IgG1, lambda, V domains shown)
VH: QVQLHQWGTGVLKPSGTLSLTCGVYGGSLTDFYWTWIRQSPARGLEWLGEIDRDGATYYNPSLKSRITISIDTSKKQFSLNLRSVTAADRAVYYCARRPMLRGVWGNFRSNWFDPWGQGTQVTVSS
VL: QSVLTQPPSVSAAPGQKVSISCSGSSSNIGYSYVSWYQQVPGSAPKLLIYENNKRPSGIPDRFSASKSGTSATLDITGLQTGDEADYYCGTWDTRLFGGVFGGGTKLTVLG
no binding (tested: 2 µg/ml): [2] | [3] | [4]
binds: all other assays above

No constants are given. Whether binding was seen depends on the method and setting. For some assays here: Binding can be weak; no strength is given.
